# Experimental data as given in paper PMC7368075.
# By UniProt entry, the sequences of proteins in these tests, tags left out. Residues count along the entry.
# UniProt Q9H792: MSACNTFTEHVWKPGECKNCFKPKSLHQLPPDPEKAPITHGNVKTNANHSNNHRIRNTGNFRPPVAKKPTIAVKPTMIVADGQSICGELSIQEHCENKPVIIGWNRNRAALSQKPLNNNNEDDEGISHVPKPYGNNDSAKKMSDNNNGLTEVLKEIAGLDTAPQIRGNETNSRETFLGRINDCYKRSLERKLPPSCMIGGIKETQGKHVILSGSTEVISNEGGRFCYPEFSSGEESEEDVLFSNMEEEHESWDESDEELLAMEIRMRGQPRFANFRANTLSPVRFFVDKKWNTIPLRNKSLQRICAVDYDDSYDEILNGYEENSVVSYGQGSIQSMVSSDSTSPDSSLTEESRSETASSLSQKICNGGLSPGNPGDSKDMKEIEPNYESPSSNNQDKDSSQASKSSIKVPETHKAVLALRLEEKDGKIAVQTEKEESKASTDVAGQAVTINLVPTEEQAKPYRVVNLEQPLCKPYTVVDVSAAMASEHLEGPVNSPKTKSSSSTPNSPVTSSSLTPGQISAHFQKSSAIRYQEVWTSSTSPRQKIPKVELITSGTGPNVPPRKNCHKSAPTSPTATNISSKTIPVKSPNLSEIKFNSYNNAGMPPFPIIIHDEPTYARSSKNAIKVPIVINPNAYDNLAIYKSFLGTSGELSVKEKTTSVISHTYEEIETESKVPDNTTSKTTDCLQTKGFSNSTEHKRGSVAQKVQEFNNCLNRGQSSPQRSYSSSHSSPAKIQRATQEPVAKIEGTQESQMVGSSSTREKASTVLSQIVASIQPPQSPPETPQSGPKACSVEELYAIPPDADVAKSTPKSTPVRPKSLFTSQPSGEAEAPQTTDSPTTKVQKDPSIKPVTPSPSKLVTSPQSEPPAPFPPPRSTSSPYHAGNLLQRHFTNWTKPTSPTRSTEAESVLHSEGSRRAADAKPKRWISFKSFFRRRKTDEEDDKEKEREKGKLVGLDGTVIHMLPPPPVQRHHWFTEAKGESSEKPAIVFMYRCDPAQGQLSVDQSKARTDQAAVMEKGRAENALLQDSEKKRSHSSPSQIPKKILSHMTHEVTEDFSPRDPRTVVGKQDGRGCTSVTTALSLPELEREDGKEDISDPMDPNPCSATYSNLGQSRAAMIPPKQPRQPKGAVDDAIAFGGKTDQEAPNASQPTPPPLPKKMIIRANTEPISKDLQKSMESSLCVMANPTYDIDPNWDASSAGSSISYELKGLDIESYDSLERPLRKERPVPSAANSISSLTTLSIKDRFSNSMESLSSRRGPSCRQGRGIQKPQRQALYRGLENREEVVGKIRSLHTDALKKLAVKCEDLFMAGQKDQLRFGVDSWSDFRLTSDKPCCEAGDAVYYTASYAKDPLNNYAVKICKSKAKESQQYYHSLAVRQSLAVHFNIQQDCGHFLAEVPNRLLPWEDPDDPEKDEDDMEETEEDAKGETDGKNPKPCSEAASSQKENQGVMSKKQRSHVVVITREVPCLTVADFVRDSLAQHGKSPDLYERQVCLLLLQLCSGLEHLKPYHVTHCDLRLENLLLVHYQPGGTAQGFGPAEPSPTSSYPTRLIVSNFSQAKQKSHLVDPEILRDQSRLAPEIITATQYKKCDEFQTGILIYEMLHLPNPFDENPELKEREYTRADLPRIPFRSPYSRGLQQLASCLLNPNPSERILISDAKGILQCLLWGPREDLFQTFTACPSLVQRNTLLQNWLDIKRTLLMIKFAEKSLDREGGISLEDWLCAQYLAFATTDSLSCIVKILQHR
# UniProt P29317, residues 24-976: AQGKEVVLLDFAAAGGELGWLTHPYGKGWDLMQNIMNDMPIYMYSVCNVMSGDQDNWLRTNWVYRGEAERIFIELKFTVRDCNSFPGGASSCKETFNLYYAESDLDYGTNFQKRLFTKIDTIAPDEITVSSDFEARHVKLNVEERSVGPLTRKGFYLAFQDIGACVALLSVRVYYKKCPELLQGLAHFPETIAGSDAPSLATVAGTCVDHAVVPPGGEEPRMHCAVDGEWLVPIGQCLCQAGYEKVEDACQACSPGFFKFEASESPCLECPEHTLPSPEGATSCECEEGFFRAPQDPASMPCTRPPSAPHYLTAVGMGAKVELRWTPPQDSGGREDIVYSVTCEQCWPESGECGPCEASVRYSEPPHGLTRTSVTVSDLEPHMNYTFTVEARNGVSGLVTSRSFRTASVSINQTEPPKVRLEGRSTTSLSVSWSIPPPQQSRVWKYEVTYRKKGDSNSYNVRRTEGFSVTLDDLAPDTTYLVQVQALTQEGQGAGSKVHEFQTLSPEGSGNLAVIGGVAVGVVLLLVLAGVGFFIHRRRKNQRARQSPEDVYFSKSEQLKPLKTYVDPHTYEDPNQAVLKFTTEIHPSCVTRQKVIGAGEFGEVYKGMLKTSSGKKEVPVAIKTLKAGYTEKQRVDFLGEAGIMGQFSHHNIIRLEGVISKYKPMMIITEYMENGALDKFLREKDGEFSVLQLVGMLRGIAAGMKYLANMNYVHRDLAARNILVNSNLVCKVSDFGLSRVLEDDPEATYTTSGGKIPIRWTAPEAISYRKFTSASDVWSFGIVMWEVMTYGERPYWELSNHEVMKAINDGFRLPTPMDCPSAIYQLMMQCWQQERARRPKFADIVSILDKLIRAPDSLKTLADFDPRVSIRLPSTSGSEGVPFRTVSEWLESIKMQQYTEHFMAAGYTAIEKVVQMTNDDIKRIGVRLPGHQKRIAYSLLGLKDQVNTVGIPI
# No constants are given. Whether binding was seen depends on the method and setting. In cells and extracts the contact can be indirect. A yes stands for co-enrichment or nearness to the bait. Other partners may have been found.
# Biological target: BirA*-FLAG-PEAK1 (human) (UniProt Q9H792)
# Test: proximity labelling; BioID: BirA*-Flag bait in Flp-In T-REx 293 cells, tetracycline and 50 µM biotin 24 h, RIPA lysis, streptavidin beads, mass spectrometry, SAINTexpress against BirA*-Flag-EGFP
row,Substance,binding
1,CRKII (from UniProt P46108-1 1-304),binds
2,EPHA2 (from UniProt P29317 24-976) (receptor),binds
